Measured values reported in publication PMC8347134, “Preparation of Antiproliferative Terpene-Alkaloid Hybrids by Free Radical-Mediated Modification of ent-Kauranic Derivatives” (Molecules, 2021).
pIC50: −log10 of the molar value.

Tested on: hTERT RPE-1
Experiment: Parallel cytotoxicity assay on non-cancerous retina cells
Assay type: cell-based
Details: hTERT-RPE1, 72 h, read-out: IC50 hTERT RPE-1
Description: A parallel cytotoxicity assay was performed on non-cancerous retina cells (hTERT RPE-1) in order to estimate the selectivity of the investigated compounds towards tumor cells. The inhibition of cell proliferation was calculated as IC50 by interpolation based on the semi-log dose response.
All cell lines were cultured as recommended by the suppliers. Culture media were purchased from Gibco Life Technologies, USA, and supplemented with 10% fetal bovine serum (HyClone, GE Healthcare Life Sciences, Logan, UT, USA). […] All stock solutions were prepared in DMSO.
After overnight incubation, cells were treated with the test compounds at seven different concentrations ranging from 100 to 6.4 × 10^−3 µM. […] The plates were incubated at 37 °C and monitored for 72 h in an IncuCyte® device (Essen BioScience Inc., Ann Arbor, MI, USA) for real-time imaging. Images were taken every 3 h, with one field imaged per well under 10× magnification. Cell growth was then quantified based on the percent cellular confluence as analysed by the IncuCyte® image analysis software and used to calculate IC50 values by linear interpolation. All tests have been performed in duplicate and the average values have been calculated.

CN[C@@H]1C[C@H]2O[C@@](C)([C@@H]1OC)n1c3ccccc3c3c4c(c5c6ccccc6n2c5c31)C(=O)NC4 [SP, staurosporine, reference compound]
pIC50: 9.00
